According to PubChem BioAssay AID330 (DTP/NCI, 2004):
The list shows only some results of the screen, not a fair sample: it is rich in T/C values a quarter to a half above the control, in often repeated tests (any T/C) and in doses without a T/C. Further doses and runs are listed elsewhere. T/C: endpoint of the treated group in % of that of the vehicle group. Some doses have a count of surviving animals in place of a T/C: the source holds a T/C of zero for them, seemingly a mark for toxic or unscored doses. Some survivor counts are full or nearly so, which does not show that the dose was tolerated: survival well below the control is almost never listed, so the zero probably covers shortened survival too. Counts of survivors are from the toxicity check (mostly the fifth day) where no day follows; animals may have died later. Schedules are NCI's codes, read here as Q, the interval in days (D) or hours (H), X, the number of doses. Some entries hold several experiments; their values stand side by side, smallest first. For survival time, this PubChem deposit counts one and a half times the control or more as active, and values a quarter to a half above the control carry no call in these data; other NCI protocols may use other cut-offs.

Test system: P388 leukemia ip, CD2F1 mice, survival T/C
Experiment: NCI In Vivo Anticancer Drug Screen. Data for tumor model P388 Leukemia (intraperitoneal) in CD2F1 (CDF1) mice
Settings: T/C endpoint: median survival time, higher T/C = longer survival
[1] = dose: 200.0 mg/kg/injection, schedule: Q01DX009 (ip), vehicle: Klucel (hydroxypropylcellulose) (HPC)
[2] = dose: 200.0 mg/kg/injection, schedule: Q01DX009 (ip), vehicle: saline
[3] = dose: 240.0 mg/kg/injection, schedule: Q01DX005 (ip), vehicle: saline with Tween-80
[4] = dose: 200.0 mg/kg/injection, schedule: Q04DX003 (ip), vehicle: water
[5] = dose: 240.0 mg/kg/injection, schedule: Q01DX005 (ip), vehicle: Klucel (hydroxypropylcellulose) (HPC)

CC(=O)OC1C(O)C(C)OC(OC2C(OC(=O)C3CCC4C(C3)OC3(CC(OC(=O)/C=C/c5ccccc5)C(C)CO3)C43CO3)OC(C)C(O)C2OC(C)=O)C1O (centres undefined)
T/C (dose: 2.0 mg/kg/injection, schedule: Q01DX005 (ip), vehicle: saline + alcohol): 127 % of control | T/C (dose: 4.0 mg/kg/injection, schedule: Q01DX005 (ip), vehicle: saline + alcohol): 128 % of control | T/C (dose: 4.0 mg/kg/injection, schedule: Q01DX009 (ip), vehicle: saline + alcohol): 129 % of control | T/C (dose: 4.0 mg/kg/injection, schedule: Q01DX009 (ip), vehicle: saline): 127 % of control | T/C (dose: 8.0 mg/kg/injection, schedule: Q01DX005 (ip), vehicle: saline + alcohol): 149 % of control | T/C (dose: 8.0 mg/kg/injection, schedule: Q01DX009 (ip), vehicle: saline + alcohol): 129 and 132 % of control | T/C (dose: 8.0 mg/kg/injection, schedule: Q01DX009 (ip), vehicle: saline): 137 % of control | T/C (dose: 16.0 mg/kg/injection, schedule: Q01DX005 (ip), vehicle: saline + alcohol): 144 % of control | T/C (dose: 16.0 mg/kg/injection, schedule: Q01DX009 (ip), vehicle: saline + alcohol): 128 % of control | survivor count (dose: 32.0 mg/kg/injection, schedule: Q01DX009 (ip), vehicle: saline + alcohol): 6 of 6

COc1ccc(C2CC(=O)C=C3c4ccc(OC)cc4CCC32)cc1 (centres undefined)
survivor count [1]: 6 of 6

Nc1nc(N)c2nnn(C3OC(CO)C(O)C3O)c2n1 (centres undefined)
T/C (dose: 6.0 mg/kg/injection, schedule: Q01DX009 (ip), vehicle: saline): 125 % of control | T/C (dose: 100.0 mg/kg/injection, schedule: Q01DX009 (ip), vehicle: saline): 132 % of control | survivor count [2]: 2 of 6

CCCCC(CC)(CC(=N)C(C)(C)C)c1ccccc1 (centres undefined)
survivor count (dose: 400.0 mg/kg/injection, schedule: Q01DX009 (ip), vehicle: saline + alcohol): 3 of 6

NCCC1C2CC3CC(C2)CC1C3 (centres undefined)
survivor count [2]: 0 of 6

c1ccc(Cc2cccc[n+]2C(c2ccccc2)c2ccccc2)cc1
survivor count (dose: 25.0 mg/kg/injection, schedule: Q01DX009 (ip), vehicle: Klucel (hydroxypropylcellulose) (HPC)): 0 of 6 | survivor count (dose: 50.0 mg/kg/injection, schedule: Q01DX009 (ip), vehicle: Klucel (hydroxypropylcellulose) (HPC)): 0 of 6

CCNSc1ccccc1
survivor count (dose: 100.0 mg/kg/injection, schedule: Q01DX009 (ip), vehicle: Klucel (hydroxypropylcellulose) (HPC)): 0 of 6 | survivor count [1]: 0 of 6

O=S1(=O)C2CCC(Br)C1CCC2Br (centres undefined)
survivor count (dose: 6.25 mg/kg/injection, schedule: Q01DX005 (ip), vehicle: Klucel (hydroxypropylcellulose) (HPC)): 0 of 5 | survivor count (dose: 12.5 mg/kg/injection, schedule: Q01DX005 (ip), vehicle: Klucel (hydroxypropylcellulose) (HPC)): 4 of 6 | survivor count (dose: 25.0 mg/kg/injection, schedule: Q01DX005 (ip), vehicle: Klucel (hydroxypropylcellulose) (HPC)): 1 of 6 | survivor count (dose: 50.0 mg/kg/injection, schedule: Q01DX005 (ip), vehicle: Klucel (hydroxypropylcellulose) (HPC)): 0 of 6 | survivor count (dose: 100.0 mg/kg/injection, schedule: Q01DX005 (ip), vehicle: Klucel (hydroxypropylcellulose) (HPC)): 0 of 6 | survivor count (dose: 200.0 mg/kg/injection, schedule: Q01DX005 (ip), vehicle: Klucel (hydroxypropylcellulose) (HPC)): 0 of 6

C=CCC1CCSC1=O (centres undefined)
T/C (dose: 50.0 mg/kg/injection, schedule: Q04DX003 (ip), vehicle: saline with Tween-80): 133 % of control | T/C (dose: 100.0 mg/kg/injection, schedule: Q04DX003 (ip), vehicle: saline with Tween-80): 135 % of control

CN(N=O)C(=O)Nc1c[nH]c(=O)[nH]c1=O
survivor count (dose: 100.0 mg/kg/injection, schedule: Q01DX009 (ip), vehicle: saline sonified): 5 of 6 | survivor count (dose: 200.0 mg/kg/injection, schedule: Q04DX003 (ip), vehicle: saline with Tween-80): 4 of 6

CCCCCCCCCCCOCC(=O)O
survivor count [1]: 3 of 6

COc1cc(/C=C/[N+](=O)[O-])cc(Br)c1O
survivor count [3]: 0 of 6

CC(N)(CCSCP(=O)(O)O)C(=O)O (centres undefined)
survivor count [3]: 6 of 6

CCC(=O)N(C)C(C)C(=O)OC1CC(=O)N(C)c2cc(cc(OC)c2Cl)CC(CBr)=C/C=C/C(OC)C2(O)CC(OC(=O)N2)C(C)C2OC12C (centres undefined)
T/C (dose: 2.0 micrograms/kg/injection, schedule: Q01DX009 (ip), vehicle: saline + alcohol): 126 % of control | T/C (dose: 4.0 micrograms/kg/injection, schedule: Q01DX009 (ip), vehicle: saline + alcohol): 126 and 137 % of control | T/C (dose: 8.0 micrograms/kg/injection, schedule: Q01DX009 (ip), vehicle: saline + alcohol): 128 and 137 % of control | T/C (dose: 16.0 micrograms/kg/injection, schedule: Q01DX009 (ip), vehicle: saline + alcohol): 137 and 149 % of control | T/C (dose: 32.0 micrograms/kg/injection, schedule: Q01DX009 (ip), vehicle: saline + alcohol): 144 % of control | survivor count (dose: 64.0 micrograms/kg/injection, schedule: Q01DX009 (ip), vehicle: saline + alcohol): 6 of 6 | survivor count (dose: 128.0 micrograms/kg/injection, schedule: Q01DX009 (ip), vehicle: saline + alcohol): 3 of 6

COc1cccc2c1C(=O)c1c(O)c3c(c(O)c1C2=O)C[C@@](O)(C(=O)COC(C)=O)C[C@@H]3OC1CC(N)C(O)C(C)O1 (some centres undefined)
survivor count (dose: 3.0 mg/kg/injection, schedule: Q01DX009 (ip), vehicle: saline sonified): 6 of 6

Cc1cc(Cl)c2c(N(C)C)cccc2n1
survivor count (dose: 200.0 mg/kg/injection, schedule: Q01DX009 (ip), vehicle: acid diluted with saline): 6 of 6

O=C(O)C1C2C(=O)N(CO)C(=O)C2C(C(=O)O)C2C3C(=O)N(CO)C(=O)C3C12 (centres undefined)
T/C (dose: 400.0 mg/kg/injection, schedule: Q01DX009 (ip), vehicle: water): 129 and 131 % of control

COc1ccc2cc3n(cc-2c1=O)CCc1cc2c(cc1-3)OCO2
T/C (dose: 25.0 mg/kg/injection, schedule: Q04DX003 (ip), vehicle: water): 132 % of control | T/C (dose: 50.0 mg/kg/injection, schedule: Q04DX003 (ip), vehicle: water): 135 and 141 % of control | T/C (dose: 100.0 mg/kg/injection, schedule: Q04DX003 (ip), vehicle: water): 141 % of control | T/C [4]: 149 % of control | survivor count [4]: 0 of 6 | survivor count (dose: 400.0 mg/kg/injection, schedule: Q04DX003 (ip), vehicle: water): 0 of 4 and 0 of 6

CC(=O)c1c(O)c2cccc3c2n(c1=O)CCC3
survivor count [5]: 0 of 6

COc1ccc(C2CC(=O)N(CN3CCN(c4ccccc4)CC3)C(=O)C2)cc1
survivor count (dose: 100.0 mg/kg/injection, schedule: Q01DX009 (ip), vehicle: saline with Tween-80): 6 of 6 | survivor count (dose: 200.0 mg/kg/injection, schedule: Q01DX009 (ip), vehicle: saline with Tween-80): 5 of 6

Cc1ccc(NCCCN2CCN(CCCNc3ccc(C)c4sc5ccccc5c(=O)c34)CC2)c2c(=O)c3ccccc3sc12
survivor count (dose: 6.25 mg/kg/injection, schedule: Q01DX005 (ip), vehicle: saline with Tween-80): 6 of 6 | survivor count (dose: 8.0 mg/kg/injection, schedule: Q01DX005 (ip), vehicle: saline with Tween-80): 6 of 6 | survivor count (dose: 13.0 mg/kg/injection, schedule: Q01DX005 (ip), vehicle: saline with Tween-80): 6 of 6 | survivor count (dose: 26.0 mg/kg/injection, schedule: Q01DX005 (ip), vehicle: saline with Tween-80): 6 of 6 | survivor count (dose: 52.0 mg/kg/injection, schedule: Q01DX005 (ip), vehicle: saline with Tween-80): 6 of 6

CCn1c(O)c(N=O)c(=O)n(CC)c1=S
survivor count (dose: 200.0 mg/kg/injection, schedule: Q04DX002 (ip), vehicle: saline with Tween-80): 1 of 6

CCCCN(C)/N=N/c1[nH]ncc1C(=O)OCC
survivor count (dose: 400.0 mg/kg/injection, schedule: Q01DX009 (ip), vehicle: other): 6 of 6

Cc1ccc(C2N(CCN3C(=O)CS(=O)(=O)C3c3ccc(C)s3)C(=O)CS2(=O)=O)s1 (centres undefined)
survivor count (dose: 400.0 mg/kg/injection, schedule: Q04DX002 (ip), vehicle: saline with Tween-80): 6 of 6

C[O+]=c1ccc2ccc(-c3ccccc3)sc-2c1
survivor count [5]: 6 of 6

CN=C(NC(C)C)c1ccc(NC(=O)c2ccc(C(=O)Nc3ccc(C(=NC)NC(C)C)cc3)cc2)cc1
T/C (dose: 16.0 mg/kg/injection, schedule: Q01DX009 (ip), vehicle: saline): 140 % of control | T/C (dose: 42.2 mg/kg/injection, schedule: Q04DX003 (ip), vehicle: saline with Tween-80): 127 % of control | T/C (dose: 64.0 mg/kg/injection, schedule: Q04DX003 (ip), vehicle: saline with Tween-80): 136 % of control
